Measurements published in the supplement of paper PMC12819154, “High-throughput peptide-centric local stability assay extends protein–ligand identification to membrane proteins, tissues and bacteria” (Nature Structural & Molecular Biology, 2025).
Some of the results follow. Most values lie at the level of the controls, where differences are scatter.

Amino acid sequences for entries named in this document (tags omitted). A change or cut given only in a name is not applied to a line headed by its entry.
UniProt Q9H1K1: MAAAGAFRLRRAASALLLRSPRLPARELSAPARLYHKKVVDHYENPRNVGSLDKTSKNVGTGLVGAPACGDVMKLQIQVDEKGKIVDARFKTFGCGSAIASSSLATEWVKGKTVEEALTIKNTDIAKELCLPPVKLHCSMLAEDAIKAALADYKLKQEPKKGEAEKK
UniProt Q9H4L4: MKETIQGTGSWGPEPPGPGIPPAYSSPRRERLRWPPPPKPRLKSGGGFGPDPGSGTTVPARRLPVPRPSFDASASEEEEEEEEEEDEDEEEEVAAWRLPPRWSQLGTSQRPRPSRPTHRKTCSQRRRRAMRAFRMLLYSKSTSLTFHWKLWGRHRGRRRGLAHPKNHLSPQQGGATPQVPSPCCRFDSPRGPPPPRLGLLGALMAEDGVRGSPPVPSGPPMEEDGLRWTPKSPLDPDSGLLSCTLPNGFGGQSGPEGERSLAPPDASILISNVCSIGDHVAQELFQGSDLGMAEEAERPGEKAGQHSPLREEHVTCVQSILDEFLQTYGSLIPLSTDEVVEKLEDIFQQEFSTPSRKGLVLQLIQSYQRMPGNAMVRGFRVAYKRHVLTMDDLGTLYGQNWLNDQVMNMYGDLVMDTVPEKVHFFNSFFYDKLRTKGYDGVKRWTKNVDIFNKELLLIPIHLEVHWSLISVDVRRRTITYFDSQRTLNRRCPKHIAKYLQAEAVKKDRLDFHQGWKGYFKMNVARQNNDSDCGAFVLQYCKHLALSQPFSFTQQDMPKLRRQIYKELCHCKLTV
UniProt Q9HCH3: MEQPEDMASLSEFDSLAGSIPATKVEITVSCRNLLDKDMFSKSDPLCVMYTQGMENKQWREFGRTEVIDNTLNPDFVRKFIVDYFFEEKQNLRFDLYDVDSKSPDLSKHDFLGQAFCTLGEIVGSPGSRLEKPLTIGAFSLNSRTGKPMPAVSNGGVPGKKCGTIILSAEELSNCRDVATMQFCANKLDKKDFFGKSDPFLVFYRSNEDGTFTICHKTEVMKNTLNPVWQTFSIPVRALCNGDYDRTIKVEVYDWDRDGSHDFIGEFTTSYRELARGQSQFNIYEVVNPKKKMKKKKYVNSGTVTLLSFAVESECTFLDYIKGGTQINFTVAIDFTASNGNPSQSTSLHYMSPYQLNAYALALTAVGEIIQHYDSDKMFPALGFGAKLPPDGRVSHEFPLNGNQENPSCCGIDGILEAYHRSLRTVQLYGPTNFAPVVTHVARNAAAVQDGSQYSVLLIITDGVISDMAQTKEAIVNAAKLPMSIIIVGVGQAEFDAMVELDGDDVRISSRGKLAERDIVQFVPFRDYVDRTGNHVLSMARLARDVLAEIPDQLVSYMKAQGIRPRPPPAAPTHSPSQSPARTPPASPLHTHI
UniProt Q9H840: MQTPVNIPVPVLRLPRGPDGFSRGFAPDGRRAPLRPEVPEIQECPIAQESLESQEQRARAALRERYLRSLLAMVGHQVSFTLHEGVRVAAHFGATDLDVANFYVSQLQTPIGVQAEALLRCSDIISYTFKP
UniProt Q9H2H9: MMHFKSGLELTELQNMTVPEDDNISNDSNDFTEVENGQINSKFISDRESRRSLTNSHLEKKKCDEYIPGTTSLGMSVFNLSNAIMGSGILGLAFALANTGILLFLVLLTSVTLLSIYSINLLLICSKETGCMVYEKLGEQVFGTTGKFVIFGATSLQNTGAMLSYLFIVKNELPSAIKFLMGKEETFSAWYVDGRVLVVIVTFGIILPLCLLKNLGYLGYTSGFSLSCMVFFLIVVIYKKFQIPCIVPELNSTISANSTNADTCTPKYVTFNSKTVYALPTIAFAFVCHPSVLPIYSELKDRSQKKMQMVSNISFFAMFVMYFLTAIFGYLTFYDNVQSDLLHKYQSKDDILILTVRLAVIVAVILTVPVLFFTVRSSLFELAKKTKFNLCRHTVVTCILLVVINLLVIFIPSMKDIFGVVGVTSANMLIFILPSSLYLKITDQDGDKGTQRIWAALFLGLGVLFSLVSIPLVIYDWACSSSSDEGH
UniProt Q9H6S3: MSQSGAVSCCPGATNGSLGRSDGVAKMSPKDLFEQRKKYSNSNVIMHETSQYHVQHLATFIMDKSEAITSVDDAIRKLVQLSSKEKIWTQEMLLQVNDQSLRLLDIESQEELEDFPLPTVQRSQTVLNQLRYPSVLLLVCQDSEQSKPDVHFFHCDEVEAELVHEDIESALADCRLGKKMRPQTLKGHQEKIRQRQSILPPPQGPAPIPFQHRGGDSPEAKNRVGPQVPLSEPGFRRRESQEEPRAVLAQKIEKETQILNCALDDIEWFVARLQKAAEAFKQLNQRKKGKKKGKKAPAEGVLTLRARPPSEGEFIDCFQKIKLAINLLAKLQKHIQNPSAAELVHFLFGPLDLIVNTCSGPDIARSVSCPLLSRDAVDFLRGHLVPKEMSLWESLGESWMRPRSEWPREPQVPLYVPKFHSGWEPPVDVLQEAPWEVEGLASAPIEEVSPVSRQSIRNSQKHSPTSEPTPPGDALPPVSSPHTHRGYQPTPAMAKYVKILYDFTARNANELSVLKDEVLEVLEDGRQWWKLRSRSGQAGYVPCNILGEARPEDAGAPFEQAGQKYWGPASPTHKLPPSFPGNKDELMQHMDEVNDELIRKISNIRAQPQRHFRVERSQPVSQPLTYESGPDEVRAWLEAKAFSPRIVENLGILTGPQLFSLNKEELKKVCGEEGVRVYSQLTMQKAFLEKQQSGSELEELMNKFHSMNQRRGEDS
UniProt Q9H9H4: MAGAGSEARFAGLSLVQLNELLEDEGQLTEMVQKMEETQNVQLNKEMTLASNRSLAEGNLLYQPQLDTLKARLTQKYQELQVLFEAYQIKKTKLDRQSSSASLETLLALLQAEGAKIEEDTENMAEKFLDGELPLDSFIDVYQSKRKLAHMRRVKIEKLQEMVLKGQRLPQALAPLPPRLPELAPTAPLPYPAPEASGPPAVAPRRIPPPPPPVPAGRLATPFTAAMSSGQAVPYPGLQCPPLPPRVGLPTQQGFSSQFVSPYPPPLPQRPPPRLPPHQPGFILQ
UniProt Q9HCC9: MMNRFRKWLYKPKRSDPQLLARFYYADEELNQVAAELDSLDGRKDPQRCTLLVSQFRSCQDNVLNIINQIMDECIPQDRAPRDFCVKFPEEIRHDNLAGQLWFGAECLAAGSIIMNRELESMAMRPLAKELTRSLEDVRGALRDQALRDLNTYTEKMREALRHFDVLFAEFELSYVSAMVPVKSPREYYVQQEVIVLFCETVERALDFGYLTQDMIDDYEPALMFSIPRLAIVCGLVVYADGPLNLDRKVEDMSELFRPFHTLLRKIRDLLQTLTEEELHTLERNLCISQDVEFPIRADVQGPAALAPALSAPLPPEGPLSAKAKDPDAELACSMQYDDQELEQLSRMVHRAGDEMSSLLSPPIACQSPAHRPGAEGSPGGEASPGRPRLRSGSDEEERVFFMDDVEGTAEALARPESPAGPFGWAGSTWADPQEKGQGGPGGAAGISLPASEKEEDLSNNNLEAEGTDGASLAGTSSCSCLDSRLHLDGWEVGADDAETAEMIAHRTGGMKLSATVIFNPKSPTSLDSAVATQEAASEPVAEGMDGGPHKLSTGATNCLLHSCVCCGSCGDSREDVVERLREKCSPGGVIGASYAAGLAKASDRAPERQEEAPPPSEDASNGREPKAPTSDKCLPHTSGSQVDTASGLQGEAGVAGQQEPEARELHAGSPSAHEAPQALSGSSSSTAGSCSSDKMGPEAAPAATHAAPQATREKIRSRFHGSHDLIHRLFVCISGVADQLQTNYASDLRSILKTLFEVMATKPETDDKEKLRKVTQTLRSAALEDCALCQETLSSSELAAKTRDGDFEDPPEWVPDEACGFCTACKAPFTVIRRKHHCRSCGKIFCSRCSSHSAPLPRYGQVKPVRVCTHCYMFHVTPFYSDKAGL
UniProt Q9H974: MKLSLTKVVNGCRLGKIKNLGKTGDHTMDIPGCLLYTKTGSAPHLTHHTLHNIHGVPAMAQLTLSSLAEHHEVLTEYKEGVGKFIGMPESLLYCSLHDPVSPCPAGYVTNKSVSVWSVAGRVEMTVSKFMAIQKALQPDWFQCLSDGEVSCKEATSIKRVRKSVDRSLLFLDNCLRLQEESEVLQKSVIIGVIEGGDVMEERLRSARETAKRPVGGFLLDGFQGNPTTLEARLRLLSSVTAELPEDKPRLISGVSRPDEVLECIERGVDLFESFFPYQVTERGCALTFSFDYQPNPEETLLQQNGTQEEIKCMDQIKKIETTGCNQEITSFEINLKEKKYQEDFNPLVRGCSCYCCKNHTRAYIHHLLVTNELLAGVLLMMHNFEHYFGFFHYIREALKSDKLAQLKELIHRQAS
UniProt Q9H7D7: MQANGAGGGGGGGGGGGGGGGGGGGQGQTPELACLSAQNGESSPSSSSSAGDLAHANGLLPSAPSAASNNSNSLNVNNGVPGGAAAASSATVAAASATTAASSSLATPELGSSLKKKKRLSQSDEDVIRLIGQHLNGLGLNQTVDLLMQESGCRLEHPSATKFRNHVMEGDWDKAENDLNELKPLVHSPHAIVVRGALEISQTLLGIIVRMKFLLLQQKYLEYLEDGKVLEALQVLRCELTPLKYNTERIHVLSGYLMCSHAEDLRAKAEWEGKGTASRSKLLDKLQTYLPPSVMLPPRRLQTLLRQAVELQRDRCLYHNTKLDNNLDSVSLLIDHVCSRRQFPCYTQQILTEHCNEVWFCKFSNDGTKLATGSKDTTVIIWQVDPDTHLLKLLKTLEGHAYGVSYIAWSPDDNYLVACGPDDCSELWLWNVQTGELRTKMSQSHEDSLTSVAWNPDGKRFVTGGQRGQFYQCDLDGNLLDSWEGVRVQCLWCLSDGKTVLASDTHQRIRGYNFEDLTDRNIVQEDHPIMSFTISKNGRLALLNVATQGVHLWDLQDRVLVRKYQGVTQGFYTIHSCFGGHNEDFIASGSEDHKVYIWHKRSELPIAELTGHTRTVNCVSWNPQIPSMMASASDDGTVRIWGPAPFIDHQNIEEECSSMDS
UniProt Q9H9D4: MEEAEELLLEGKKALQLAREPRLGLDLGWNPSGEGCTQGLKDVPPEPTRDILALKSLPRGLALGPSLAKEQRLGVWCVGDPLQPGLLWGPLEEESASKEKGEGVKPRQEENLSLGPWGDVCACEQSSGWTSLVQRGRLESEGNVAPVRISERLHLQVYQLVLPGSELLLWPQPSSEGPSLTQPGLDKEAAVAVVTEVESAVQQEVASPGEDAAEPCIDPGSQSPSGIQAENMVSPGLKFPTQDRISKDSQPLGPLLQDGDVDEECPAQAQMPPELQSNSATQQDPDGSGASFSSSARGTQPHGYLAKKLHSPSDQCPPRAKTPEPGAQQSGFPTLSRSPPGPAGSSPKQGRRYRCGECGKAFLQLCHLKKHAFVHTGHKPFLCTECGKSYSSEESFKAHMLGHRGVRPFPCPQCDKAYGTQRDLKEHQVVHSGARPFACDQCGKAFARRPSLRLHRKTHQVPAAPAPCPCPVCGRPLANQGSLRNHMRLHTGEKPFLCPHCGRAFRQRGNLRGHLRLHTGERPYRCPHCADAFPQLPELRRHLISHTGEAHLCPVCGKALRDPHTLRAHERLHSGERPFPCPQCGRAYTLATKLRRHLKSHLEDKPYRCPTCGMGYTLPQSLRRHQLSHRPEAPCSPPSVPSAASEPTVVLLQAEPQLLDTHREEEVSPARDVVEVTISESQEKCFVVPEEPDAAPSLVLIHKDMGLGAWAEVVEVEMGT

Compound: Cc1nc(Nc2ncc(C(=O)Nc3c(C)cccc3Cl)s2)cc(N2CCN(CCO)CC2)n1 [dasatinib]
Experiment: log2 fold change of tryptic peptide abundance, ligand vs vehicle (limited proteolysis) (log2 ratio); higher = more trypsin-susceptible (destabilized)
Settings: ligand concentration: 5 uM; sample: K562 cleared lysate

| Target | log2 fold change |
| --- | --- |
| ISCU (peptide sequence: GKTVEEALTIK, peptide start residue: 111) (UniProt Q9H1K1) | 0.582 |
| SENP3 (peptide sequence: WSQLGTSQR, peptide start residue: 102) (UniProt Q9H4L4) | -0.63 |
| CPNE5 (peptide sequence: DIVQFVPFR, peptide start residue: 485) (UniProt Q9HCH3) | -0.166 |
| GEMIN7 (peptide sequence: CSDIISYTFKP, peptide start residue: 121) (UniProt Q9H840) | 0.0705 |
| SLC38A1 (peptide sequence: SLTNSHLEK, peptide start residue: 52) (UniProt Q9H2H9) | -0.125 |
| EPS8L2 (peptide sequence: KAPAEGVLTLR, peptide start residue: 295) (UniProt Q9H6S3) | -0.169 |
| VPS37B (peptide sequence: RIPPPPPPVPAGR, peptide start residue: 206) (UniProt Q9H9H4) | -0.176 |
| ZFYVE28 (peptide sequence: VCTHCYMFHVTPFYSDK, peptide start residue: 868) (UniProt Q9HCC9) | 0.778 |
| UniProt Q9H974 (peptide sequence: SLLFLDNCLR, peptide start residue: 167) | -0.349 |
| WDR26 (peptide sequence: AKAEWEGK, peptide start residue: 267) (UniProt Q9H7D7) | 0.226 |
| UniProt Q9H9D4 (peptide sequence: LHTGEKPFLCPHCGR, peptide start residue: 489) | 0.17 |
